# Measurements: PubChem BioAssay AID493014 (National Center for Advancing Translational Sciences (NCATS), 2011)
# About 170 (0.05%) of roughly 340,000 compounds were called active. The inconclusive results got no clear call from the source; some entries with a clear call stand among them for comparison. The call rests on the fitted dose curve; in most records, active means well fitted inhibition curve with a large enough effect in the signal ratio, with a control signal flat (not every such curve was filed as active); inconclusive means small, poorly fitted or top-dose-only effect, or effect the other way, or a change in a side signal; inactive means flat fitted curve, though single readings scatter; the % refers to the signal ratio. Potencies beside an inconclusive call are fits to weak or partial responses and may not hold up.
# Assay: qHTS Assay to Find Inhibitors of Chronic Active B-Cell Receptor Signaling;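 on activity change, negative = inhibition: plate controls were basal doxycycline-induced cells for no effect and cells given 10 µM MG132 for full effect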
# Settings: ABC-DLBCL IkBa-CBG/CBR reporter, luminescence ratio (green luciferase fused to IkBa over red control in TMD8 lymphoma cells), 4 h; activity change, negative = inhibition: at 46.1 µM (top of the series)
# Summary of the method: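 Compounds up to 46 uM were incubated four hours with TMD8 cells whose green CBG68 luciferase is fused to IkappaBalpha; red CBR luminescence normalised the signal, and concentration-effect curves were fitted to fusion, red and ratio data.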
# Potency means the concentration at half of the fitted maximal effect.
SMILES,Potency,"activity change, negative = inhibition"
Oc1ccc(N=Nc2ccc(Br)cc2)c(O)c1,"inconclusive: 35.5 µM [falling, single point]",–
Cc1[nH]c2ccccc2c1N=Nc1ccccc1F,–,inconclusive: 15.7%
CC(C)CNCC(=O)N1c2ccccc2Sc2ccccc21,–,inactive
CC(=O)Nc1ccc(NC(=O)C(C)OC(=O)c2c(C)nn(-c3ccccc3)c2Cl)cc1 (stereo not drawn),–,inconclusive: -0.383%
CCC/C(=N\NC(=O)Cc1csc(N2CCOCC2)n1)c1ccccc1,–,inconclusive: -11.6%
CSc1ccc2c(c1)N(CCC1CCCCN1C)c1ccccc1S2 (stereo not drawn),–,inconclusive: -16.3%
COc1ccc(-n2nc(C#N)c(Cl)cc2=O)cc1,–,inconclusive: 14.7%
O=C(CCCN1C(=O)/C(=C/c2ccccc2Cl)SC1=S)NNC(=O)c1ccc(Cl)cc1,"inconclusive: 17.8 µM [falling, partial curve, poor fit]",–
O=C(CSc1n[nH]c(=O)[nH]c1=O)N/N=C/C=C\c1ccccc1,"inconclusive: 35.5 µM [falling, single point]",–
Cc1ccc(/C=C/C(=O)NCc2cccs2)cc1,"inconclusive: 18.4 µM [falling, single point]",–
Nc1nc(SCc2nc(-c3ccccc3)no2)[nH]c(=O)c1-c1ccccc1,"inconclusive: 16.4 µM [falling, partial curve]",–
COCC(C)n1c(C)cc(C(=O)CSc2ncccn2)c1C (stereo not drawn),–,inconclusive: 0.409%
COc1cc(/C=N/n2nnnc2N)cc(OC)c1OC,"inconclusive: 35.5 µM [falling, single point]",–
O=C1C(=O)N(C/C=C/c2ccccc2)c2ccccc21,–,inconclusive: -25.2%
COc1ccc(NC(=O)COC(=O)CC2CC3CCC2C3)c([N+](=O)[O-])c1 (stereo not drawn),–,inactive
Oc1ccccc1CN1CCN(C(O)(c2ccccc2)c2ccccc2)CC1,–,inconclusive: -16.4%
CCOC(=O)c1cccc(NC(=O)CSc2nnc(C3CCCCC3)n2CC)c1,–,inconclusive: -0.119%
COc1ccc(C)c(Cn2c(-c3nonc3N)nc3ccccc32)c1,–,inconclusive: -13.3%
Cc1cc(C)nc(NC(=O)c2ccc3c(c2)OCO3)c1,"inconclusive: 14.1 µM [falling, single point]",–
O=C(NCC(=O)N1CCN(C(=O)c2ccco2)CC1)c1ccc(Cl)cc1,"inconclusive: 2.31 µM [falling, partial curve, poor fit]",–
COc1ccc(-n2c(COc3ccc(C)cc3)nnc2SCC(=O)O)cc1,–,inactive
Cc1ccc(N(C)S(=O)(=O)c2c[nH]c3ccc([N+](=O)[O-])cc23)cc1,–,inconclusive: 0.167%
COc1ccccc1NC(=O)Nc1ccc(Cl)c(S(=O)(=O)Nc2ccccc2OC)c1,–,inconclusive: 0.114%
O=C(c1ccc(S(=O)(=O)N2CCc3ccccc3C2)cc1)N1CCCCC1,–,inactive
CC(=O)c1c(C)[nH]c(C(=O)COC(=O)c2ccc(Cl)nc2)c1C,–,inconclusive: 2.79%
CC(C)(Sc1ccc(CCN(CCCCC2CCCCC2)C(=O)NC2CCCCC2)cc1)C(=O)O,–,inactive

# Already shown: entries from further up.
SMILES,Potency,"activity change, negative = inhibition"
COc1ccc(-n2c(COc3ccc(C)cc3)nnc2SCC(=O)O)cc1,–,inactive
Cc1ccc(N(C)S(=O)(=O)c2c[nH]c3ccc([N+](=O)[O-])cc23)cc1,–,inconclusive: 0.167%
COc1ccccc1NC(=O)Nc1ccc(Cl)c(S(=O)(=O)Nc2ccccc2OC)c1,–,inconclusive: 0.114%

# (listing goes on)

SMILES,Potency,"activity change, negative = inhibition"
C/C(=N/N=C(/C)c1cccs1)c1cccs1,–,inconclusive: -0.154%
COc1ccc(CCNC(=O)c2sc3ccccc3c2Cl)cc1OC,"inconclusive: 0.731 µM [falling, full curve, poor fit]",–
COc1ccc(C(=O)NCCn2ccc3ccccc32)c(OC)c1,–,inconclusive: 11%
CCOc1ccc(NS(=O)(=O)c2ccc(C(=O)N3CC(C)OC(C)C3)cc2)cc1 (stereo not drawn),–,inactive
COc1ccc(Br)cc1C(=O)Nc1ccc(N2CCCC2)cc1,"inconclusive: 14.1 µM [falling, partial curve, poor fit]",–
CCOC(=O)C1CCN(C2CC(=O)N(c3cccc(Cl)c3)C2=O)CC1 (stereo not drawn),"inconclusive: 29.1 µM [falling, partial curve, poor fit]",–
CCOc1ccccc1N1CCN(Cc2ccco2)CC1,–,inconclusive: 6.41%
O=C(CCNc1n[nH]c(=O)[nH]c1=O)N/N=C/c1ccccc1Br,"inconclusive: 10 µM [falling, partial curve, poor fit]",–
CCOC(=O)C1CCCN(C(=O)C(C)Oc2ccc(Cl)cc2Cl)C1 (stereo not drawn),–,inconclusive: 1.18%
COc1ccc(N2CCN(C(=O)c3ccc4c(=O)n(CCc5ccc(OC)c(OC)c5)c(=O)[nH]c4c3)CC2)cc1,–,inactive
c1ccc(NCc2nc3ccccc3n2CCOc2ccccc2)cc1,"inconclusive: 4.61 µM [falling, partial curve]",–
O=C1C(Cl)=C(NCCCO)C(=O)c2ccccc21,"inconclusive: 23.1 µM [rising, single point]",–
Cn1c(SCc2nnc3n2CCCCC3)nc2ccccc21,–,inconclusive: 0.527%
CC(C)CCn1c(CN2CCN(c3cccc(Cl)c3)CC2)nc2c1c(=O)n(C)c(=O)n2C,–,inactive
c1ccc2c(c1)Nc1nccnc1S2,"inconclusive: 18.4 µM [falling, partial curve]",–
CCc1ccc(NC(=S)NCc2cccnc2)cc1,–,inactive
Oc1ccc(-c2[nH]ncc2-c2ccc(Br)cc2)c(O)c1,–,inconclusive: -0.0141%
S=C(c1ccc2c(c1)OCO2)N1CCCCCC1,"inconclusive: 1.16 µM [falling, partial curve, poor fit]",–
Cc1c(/C=C/C(=O)c2ccc(Cl)s2)cnn1C,–,inconclusive: -8.78%
Cc1nn(-c2ccccc2)c(Cl)c1C(=O)NC1CCCCC1,–,inconclusive: 25.7%
CSc1ccc(Cl)c(C(=O)NNC(=O)c2csc(N3CCOCC3)n2)c1,"inconclusive: 23.1 µM [falling, single point]",–
C[C@H]1CN([C@@H](C)CO)C(=O)Cc2cc(NC(=O)CCC(F)(F)F)ccc2O[C@H]1CN(C)S(=O)(=O)c1ccc(F)cc1,–,inconclusive: -6.74%
Cc1nc2ccccc2c2oc(C(=O)NCC3CCCO3)cc12 (stereo not drawn),–,inconclusive: 0.535%
CCOC(=O)C1=CN(Cc2cccc(F)c2)S(=O)(=O)NC1c1cccc(OC)c1 (stereo not drawn),–,inconclusive: -8.32%
COc1ccc(NC(=O)CN(C)C(=O)/C=C/c2cn(-c3ccccc3)nc2-c2ccc(F)cc2)cc1,–,inconclusive: 2.82%
O=C(Cn1ncc(Cl)c(Cl)c1=O)c1ccc2c(c1)OCCO2,–,inconclusive: 9.15%

SMILES,Potency,"activity change, negative = inhibition"
CCCc1cc(=O)oc2c(C)c(OCC(=O)NCCCN3CCOCC3)ccc12,–,inconclusive: 7.08%
CCN(CC)c1ccc(/C=N/Nc2nc3ccccc3[nH]2)cc1,"inconclusive: 2.91 µM [cytotoxic, partial curve, poor fit]",–
CCC1CCc2c(sc(NC(=O)c3ccoc3C)c2C(N)=O)C1 (stereo not drawn),–,inconclusive: 7.5%
CCOC(=O)c1sc(NC(=O)/C=C/c2ccccc2)nc1C,"inconclusive: 0.231 µM [falling, full curve, poor fit]",–
COc1ccc2nc3sc(C(=O)NCc4cccs4)c(N)c3cc2c1,–,inconclusive: 7.86%
COC(=O)C(NC(=O)C(CC(C)C)NC(=O)C1CCC(C)CC1)C(C)C (stereo not drawn),–,inconclusive: 23%
Cc1ccc(NS(=O)(=O)c2cc(NC(=O)c3ccc4c(c3)NC(=O)CS4)ccc2C)c(C)c1,–,inconclusive: -13.3%
CC/C(=C(/CC)c1ccc(O)cc1)c1ccc(O)cc1,"inconclusive: 35.5 µM [falling, single point]",–
O=C(N/N=C/c1ccncc1)NC12CC3CC(CC(C3)C1)C2,"inconclusive: 35.5 µM [falling, single point]",–
Cc1nn2c(N)c(C#N)cnc2c1-c1ccc(Cl)cc1,"inconclusive: 0.0731 µM [rising, full curve]",–
COc1ccc(OC)c(-c2cc(C(=O)NCc3ccco3)no2)c1,"inconclusive: 11.2 µM [falling, single point]",–
Cc1nn(-c2ccccc2)c(C)c1C(=O)OCC(=O)N(C)C1CCS(=O)(=O)C1 (stereo not drawn),"inconclusive: 0.316 µM [falling, full curve, poor fit]",–
CCC(C(=O)NC1CCCC1)N(C(=O)Cn1nnc(-c2ccc(OC)c(OC)c2)n1)C1CCCCC1 (stereo not drawn),–,inconclusive: -8.37%
COc1ccc(Nc2nc(-c3sc(C)nc3C)cs2)cc1,"inconclusive: 22.4 µM [falling, single point]",–
CNC(=O)CC1C(=O)N(c2ccc(OC)cc2)C(=S)N1NC(=O)c1cccc(F)c1 (stereo not drawn),–,inconclusive: 9.28%
COc1cccc(NC(=O)c2ncc(Cl)c(Cl)c2Cl)c1,"inconclusive: 12.6 µM [falling, partial curve, poor fit]",–
O=C(Nc1ccc(Cl)c(Cl)c1)C1=Cc2ccccc2OC1,–,inconclusive: -5.1%
CCc1ccc(NC(=S)NC2CC3CCCC(C2)N3Cc2ccccc2)cc1 (stereo not drawn),–,inconclusive: -10.5%
O=C(CSc1nc(=O)n(CCCN2CCOCC2)c2c1CCCC2)Nc1cccc(Cl)c1,–,inactive
Cc1cc(C)c(S(=O)(=O)c2ccccc2Cl)c(=O)[nH]1,–,inconclusive: 0.193%
COC(=O)CSc1nc2ccc(NC(C)=O)cc2s1,–,inconclusive: -9.79%
CC(C)NC(=S)N/N=C/c1cccs1,–,inconclusive: -1.28%
COCCN(C(=O)CSc1nnc(-c2cccs2)n1N)c1c(N)n(Cc2ccccc2)c(=O)[nH]c1=O,–,inactive
Cc1cc(C(F)(F)F)nn1Cc1n[nH]c(=S)n1-c1cccc(Cl)c1,–,inactive
COc1ccc(/C=C2/C(=O)ON=C2C)cc1Br,–,inconclusive: 3.34%
CN(C)CCCN(Cc1ccccc1)C(=S)Nc1cccc(C(F)(F)F)c1,–,inconclusive: -20.7%

# Sorted by formula weight (high to low): part of the list above
SMILES,Potency,"activity change, negative = inhibition"
CN(C)CCCN(Cc1ccccc1)C(=S)Nc1cccc(C(F)(F)F)c1,–,inconclusive: -20.7%
COC(=O)C(NC(=O)C(CC(C)C)NC(=O)C1CCC(C)CC1)C(C)C (stereo not drawn),–,inconclusive: 23%
CCN(CC)c1ccc(/C=N/Nc2nc3ccccc3[nH]2)cc1,"inconclusive: 2.91 µM [cytotoxic, partial curve, poor fit]",–
